# According to the supplement of paper PMC4604168 (melanoma cell lines):
# The list shows a part of the results. Repeats are few or missing, and single values can be far off.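 The apoptosis fraction was the count of cleaved-PARP antibody-stained nuclei relative to all DNA-stained nuclei, imaged in 1,536-well plates. Screening doses were set so most cells survived, and baseline and induced cleaved-PARP levels vary greatly across cell lines.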
# Experiments:
# Test in all cases: cleaved PARP positive nuclei fraction relative to DMSO control; melanoma cells; higher = more apoptosis
# Conditions in all cases: library dose: low library concentration; 72 h
# MZ2-MEL = tested on: MZ2-MEL
# MeWo = tested on: MeWo
# RPMI7951 = tested on: RPMI7951
# RVH-421 = tested on: RVH-421
# SkMel28 = tested on: SkMel28
# SkMel30 = tested on: SkMel30
# SkMel5 = tested on: SkMel5
# UACC257 = tested on: UACC257
# UACC62 = tested on: UACC62
# SkMel2 = tested on: SkMel2
Compound,cleaved PARP positive nuclei fraction (MZ2-MEL),cleaved PARP positive nuclei fraction (MeWo),cleaved PARP positive nuclei fraction (RPMI7951),cleaved PARP positive nuclei fraction (RVH-421),cleaved PARP positive nuclei fraction (SkMel28),cleaved PARP positive nuclei fraction (SkMel30),cleaved PARP positive nuclei fraction (SkMel5),cleaved PARP positive nuclei fraction (UACC257),cleaved PARP positive nuclei fraction (UACC62),cleaved PARP positive nuclei fraction (SkMel2)
"COc1ccc(COc2ccc(Cc3cnc(N)nc3N)cc2OC)cc1 + COc1cc2ncnc(Nc3ccc(Oc4ccccc4)cc3)c2cc1OC [SrcI1] (first compound 1 µM, partner dose 2 µM)",74.1%,28.2%,57.8%,363%,187%,13.6%,58.3%,164%,233%,–
"COc1cc(N2CCC(N3CCN(C)CC3)CC2)ccc1Nc1ncc(Cl)c(Nc2ccccc2S(=O)(=O)C(C)C)n1 + CCCCCCCCCCCC1=C(O)C(=O)C=C(O)C1=O [Embelin] (first compound 0.08 µM, partner dose 1.2 µM)",38.6%,196%,163%,87.2%,104%,40.6%,106%,123%,70.1%,–
"CN(C)S(=O)(=O)c1ccc2c(c1)/C(=C/c1cc3c([nH]1)CCCC3)C(=O)N2 + CCN(CC)CCCCNc1ncc2cc(-c3cc(OC)cc(OC)c3)c(NC(=O)NC(C)(C)C)nc2n1 [PD173074] (first compound 0.4 µM, partner dose 0.1 µM)",252%,28.6%,45.4%,109%,94.4%,15.3%,37.4%,268%,134%,–
"CN(C)S(=O)(=O)c1ccc2c(c1)/C(=C/c1cc3c([nH]1)CCCC3)C(=O)N2 + COc1cc2ncnc(Nc3ccc(Oc4ccccc4)cc3)c2cc1OC [SrcI1] (first compound 0.4 µM, partner dose 2 µM)",71.1%,141%,222%,54.6%,151%,60.9%,111%,220%,114%,–
"NCC(=O)Nc1ccc(-n2nc(C(F)(F)F)cc2-c2ccc3c(ccc4ccccc43)c2)cc1 + O=C1NC(=O)/C(=C/c2ccc(-c3ccc(F)cc3O)o2)S1 [AS252424] (first compound 1 µM, partner dose 1 µM)",46.8%,93.6%,86.6%,120%,196%,124%,33.4%,110%,46.6%,–
"CN(C)S(=O)(=O)c1ccc2c(c1)/C(=C/c1cc3c([nH]1)CCCC3)C(=O)N2 + O=C(O)c1ccc(-c2c[nH]c3ncc(-c4ccccc4)cc23)cc1C1CCCC1 [GSK650394] (first compound 0.4 µM, partner dose 0.16 µM)",102%,236%,169%,96.9%,76.9%,276%,138%,59.8%,147%,58.6%
"NCC(=O)Nc1ccc(-n2nc(C(F)(F)F)cc2-c2ccc3c(ccc4ccccc43)c2)cc1 + COc1cc2c(Oc3ccc4[nH]c(C)cc4c3F)ncnc2cc1OCCCN1CCCC1 [cediranib] (first compound 1 µM, partner dose 0.4 µM)",203%,1330%,45.3%,39.8%,144%,307%,149%,55.1%,69.5%,228%
"O=C(O)c1ccc(-c2c[nH]c3ncc(-c4ccccc4)cc23)cc1C1CCCC1 + COc1ccc(-c2ccc3c(N4CCOCC4)nc(N4C[C@@H](C)O[C@@H](C)C4)nc3n2)cc1CO [KU0063794] (first compound 0.16 µM, partner dose 0.02 µM)",124%,125%,47.5%,112%,155%,94.4%,76.3%,256%,58.9%,–
"CN(C)S(=O)(=O)c1ccc2c(c1)/C(=C/c1cc3c([nH]1)CCCC3)C(=O)N2 + CN(NC(=O)CC(=O)NN(C)C(=S)c1ccccc1)C(=S)c1ccccc1 [STA4783] (first compound 0.4 µM, partner dose 0.006 µM)",85.3%,36.3%,71.6%,30.5%,89.4%,57.8%,95.3%,88.1%,281%,34.2%
"NCC(=O)Nc1ccc(-n2nc(C(F)(F)F)cc2-c2ccc3c(ccc4ccccc43)c2)cc1 + COc1ccc(-c2ccc3c(N4CCOCC4)nc(N4C[C@@H](C)O[C@@H](C)C4)nc3n2)cc1CO [KU0063794] (first compound 1 µM, partner dose 0.02 µM)",104%,119%,271%,116%,186%,41.7%,186%,138%,358%,–
"CN(NC(=O)CC(=O)NN(C)C(=S)c1ccccc1)C(=S)c1ccccc1 + COc1cc2c(Oc3ccc4[nH]c(C)cc4c3F)ncnc2cc1OCCCN1CCCC1 [cediranib] (first compound 0.006 µM, partner dose 0.4 µM)",107%,41%,31.8%,82.7%,73.5%,73.9%,35.8%,59.8%,154%,30.2%
"NCC(=O)Nc1ccc(-n2nc(C(F)(F)F)cc2-c2ccc3c(ccc4ccccc43)c2)cc1 + CN(NC(=O)CC(=O)NN(C)C(=S)c1ccccc1)C(=S)c1ccccc1 [STA4783] (first compound 1 µM, partner dose 0.006 µM)",72.6%,179%,103%,69%,113%,129%,123%,76.9%,58.9%,116%
"CN(C)S(=O)(=O)c1ccc2c(c1)/C(=C/c1cc3c([nH]1)CCCC3)C(=O)N2 + COc1cc2c(Oc3ccc4[nH]c(C)cc4c3F)ncnc2cc1OCCCN1CCCC1 [cediranib] (first compound 0.4 µM, partner dose 0.4 µM)",123%,144%,94.7%,65.1%,122%,68%,265%,105%,72%,81.8%
"O=C(O)c1ccc(-c2c[nH]c3ncc(-c4ccccc4)cc23)cc1C1CCCC1 + CN(NC(=O)CC(=O)NN(C)C(=S)c1ccccc1)C(=S)c1ccccc1 [STA4783] (first compound 0.16 µM, partner dose 0.006 µM)",830%,38.3%,62.4%,217%,68.4%,75.7%,310%,159%,74%,34.2%
"O=C(Nc1ccccc1)c1cc([N+](=O)[O-])ccc1Cl + N#Cc1c(O)c2c(-c3ccc(-c4ccccc4O)cc3)csc2[nH]c1=O [A769662] (first compound 2 µM, partner dose 2 µM)",101%,49.2%,37.7%,19.6%,71.9%,268%,63.2%,157%,74.7%,–
"Cn1cc(/C=C2\C(=O)Nc3cccnc32)c2ccccc21 + CCCCCCCCCCCC1=C(O)C(=O)C=C(O)C1=O [Embelin] (first compound 0.4 µM, partner dose 1.2 µM)",36.7%,69.2%,151%,79.1%,158%,348%,143%,126%,303%,–
"NCC(=O)Nc1ccc(-n2nc(C(F)(F)F)cc2-c2ccc3c(ccc4ccccc43)c2)cc1 + O=C(O)C(=O)Nc1sc2c(c1C(=O)O)CCNC2 [TCS401] (first compound 1 µM, partner dose 1.66667 µM)",134%,194%,149%,60.7%,199%,451%,114%,123%,37.1%,–
"O=S(=O)(c1ccccc1)N(CC(F)(F)F)c1ccc(C(O)(C(F)(F)F)C(F)(F)F)cc1 + c1cc(-c2cnn3cc(-c4ccc(OCCN5CCCCC5)cc4)cnc23)ccn1 [Dorsomorphin] (first compound 1.4 µM, partner dose 0.4 µM)",77.1%,32.6%,244%,89.4%,273%,96.6%,34.6%,141%,163%,–
"COC(=O)c1sccc1S(=O)(=O)Nc1ccc(Nc2ccccc2)cc1OC + Oc1nc(-c2ccc(C(F)(F)F)cc2)nc2c1CSCC2 [XAV939] (first compound 1 µM, partner dose 2 µM)",93.3%,127%,92.9%,26.7%,102%,22.1%,65.7%,56.4%,42.4%,–
"Cc1cc([N+](=O)[O-])ccc1NS(=O)(=O)c1cc(Cl)ccc1Cl + Oc1nc(-c2ccc(C(F)(F)F)cc2)nc2c1CSCC2 [XAV939] (first compound 1 µM, partner dose 2 µM)",82.7%,30.3%,47.6%,99.2%,86.2%,12.7%,33.6%,80.6%,55.4%,–
"CCc1ccc(CCOc2ccc(CC3SC(=O)NC3=O)cc2)nc1 (stereo not drawn) [pioglitazone] + N#Cc1c(O)c2c(-c3ccc(-c4ccccc4O)cc3)csc2[nH]c1=O [A769662] (first compound 2 µM, partner dose 2 µM)",90.2%,54.1%,255%,68.8%,106%,83.8%,25.6%,80.3%,64.6%,–
"CN(NC(=O)CC(=O)NN(C)C(=S)c1ccccc1)C(=S)c1ccccc1 + O=c1cc(-c2cccc3c2Sc2ccccc2S3)oc(N2CCOCC2)c1 [KU55933] (first compound 0.006 µM, partner dose 1 µM)",150%,57.5%,17.3%,77.1%,231%,34.6%,117%,87.3%,22.7%,–
"CCc1ccc(CCOc2ccc(CC3SC(=O)NC3=O)cc2)nc1 (stereo not drawn) [pioglitazone] + O=C1NC(=O)/C(=C/c2ccc(-c3ccc(F)cc3O)o2)S1 [AS252424] (first compound 2 µM, partner dose 1 µM)",31%,102%,174%,30.1%,88.9%,106%,29.8%,152%,79.1%,–
"COc1ccc2c(c1)CCC1C2CCC2(C)C(NCCCCCCN3C(=O)C=CC3=O)CCC12 (stereo not drawn) + c1cc(-c2cnn3cc(-c4ccc(OCCN5CCCCC5)cc4)cnc23)ccn1 [Dorsomorphin] (first compound 0.4 µM, partner dose 0.4 µM)",160%,27.3%,110%,82.7%,251%,84.4%,128%,213%,130%,–

# Complete entries as entered above. Values in the order: cleaved PARP positive nuclei fraction (MZ2-MEL)	cleaved PARP positive nuclei fraction (MeWo)	cleaved PARP positive nuclei fraction (RPMI7951)	cleaved PARP positive nuclei fraction (RVH-421)	cleaved PARP positive nuclei fraction (SkMel28)	cleaved PARP positive nuclei fraction (SkMel30)	cleaved PARP positive nuclei fraction (SkMel5)	cleaved PARP positive nuclei fraction (UACC257)	cleaved PARP positive nuclei fraction (UACC62)	cleaved PARP positive nuclei fraction (SkMel2)
# CCc1ccc(CCOc2ccc(CC3SC(=O)NC3=O)cc2)nc1 (stereo not drawn) [pioglitazone] + N#Cc1c(O)c2c(-c3ccc(-c4ccccc4O)cc3)csc2[nH]c1=O [A769662] (first compound 2 µM, partner dose 2 µM) as listed: 90.2%	54.1%	255%	68.8%	106%	83.8%	25.6%	80.3%	64.6%	–
# CN(NC(=O)CC(=O)NN(C)C(=S)c1ccccc1)C(=S)c1ccccc1 + COc1cc2c(Oc3ccc4[nH]c(C)cc4c3F)ncnc2cc1OCCCN1CCCC1 [cediranib] (first compound 0.006 µM, partner dose 0.4 µM) as listed: 107%	41%	31.8%	82.7%	73.5%	73.9%	35.8%	59.8%	154%	30.2%
